No constants are given. Whether binding was seen depends on the method and setting. Some binding calls cover weakened binding; strength is not graded here.
Target: CSB ATPase-deficient mutant (CSB K538R) (human) (UniProt Q03468)
Assay: cryo-EM structure; structures 4 and 5: Pol II–CSB–CRL4^CSA–UVSSA–SPT6–PAF complex; two conformations of CUL4A–RBX1 (state 1, state 2) from focused 3D classification of one sample; both purified

By UniProt entry, the sequences of proteins in these tests, tags left out. Where a name states a change or a piece, a line headed by the entry shows the natural chain unless it says otherwise.
UniProt Q03468: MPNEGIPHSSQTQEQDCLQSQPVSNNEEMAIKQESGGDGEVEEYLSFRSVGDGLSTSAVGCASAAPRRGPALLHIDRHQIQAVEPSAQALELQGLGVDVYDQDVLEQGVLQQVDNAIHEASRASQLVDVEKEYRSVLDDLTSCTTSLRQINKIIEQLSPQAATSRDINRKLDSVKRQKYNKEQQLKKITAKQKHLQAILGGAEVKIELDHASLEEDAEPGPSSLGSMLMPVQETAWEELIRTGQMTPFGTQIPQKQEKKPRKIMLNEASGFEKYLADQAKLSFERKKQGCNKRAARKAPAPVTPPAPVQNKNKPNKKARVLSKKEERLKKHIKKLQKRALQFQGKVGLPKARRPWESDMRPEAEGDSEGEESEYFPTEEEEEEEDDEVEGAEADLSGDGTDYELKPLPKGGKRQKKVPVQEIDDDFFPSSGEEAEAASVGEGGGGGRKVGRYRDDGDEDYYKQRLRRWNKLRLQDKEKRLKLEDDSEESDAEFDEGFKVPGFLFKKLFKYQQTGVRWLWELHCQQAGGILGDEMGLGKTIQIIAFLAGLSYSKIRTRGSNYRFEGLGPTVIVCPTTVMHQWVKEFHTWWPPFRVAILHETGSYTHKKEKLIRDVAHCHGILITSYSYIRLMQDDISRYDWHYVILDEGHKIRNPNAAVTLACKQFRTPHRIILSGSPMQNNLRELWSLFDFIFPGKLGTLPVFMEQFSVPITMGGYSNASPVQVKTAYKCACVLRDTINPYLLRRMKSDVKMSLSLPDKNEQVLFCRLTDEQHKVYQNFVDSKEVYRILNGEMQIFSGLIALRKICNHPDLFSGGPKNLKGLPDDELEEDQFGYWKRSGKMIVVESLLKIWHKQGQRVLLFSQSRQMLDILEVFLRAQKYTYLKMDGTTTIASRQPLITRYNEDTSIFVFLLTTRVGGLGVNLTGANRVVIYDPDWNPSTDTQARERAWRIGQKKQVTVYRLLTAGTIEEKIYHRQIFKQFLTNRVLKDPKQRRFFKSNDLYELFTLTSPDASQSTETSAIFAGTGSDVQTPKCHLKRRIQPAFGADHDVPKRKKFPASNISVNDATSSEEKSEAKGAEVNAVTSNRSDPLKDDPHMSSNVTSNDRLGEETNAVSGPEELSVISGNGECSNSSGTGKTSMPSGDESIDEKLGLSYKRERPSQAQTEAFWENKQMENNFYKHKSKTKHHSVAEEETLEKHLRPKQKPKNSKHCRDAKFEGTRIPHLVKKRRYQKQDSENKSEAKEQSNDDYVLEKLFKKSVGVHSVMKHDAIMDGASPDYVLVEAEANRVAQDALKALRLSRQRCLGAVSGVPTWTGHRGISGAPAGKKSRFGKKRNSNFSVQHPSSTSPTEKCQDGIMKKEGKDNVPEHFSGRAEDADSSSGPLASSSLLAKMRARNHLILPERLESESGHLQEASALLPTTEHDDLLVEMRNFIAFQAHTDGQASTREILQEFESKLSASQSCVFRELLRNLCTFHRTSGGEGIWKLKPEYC
UniProt Q13619: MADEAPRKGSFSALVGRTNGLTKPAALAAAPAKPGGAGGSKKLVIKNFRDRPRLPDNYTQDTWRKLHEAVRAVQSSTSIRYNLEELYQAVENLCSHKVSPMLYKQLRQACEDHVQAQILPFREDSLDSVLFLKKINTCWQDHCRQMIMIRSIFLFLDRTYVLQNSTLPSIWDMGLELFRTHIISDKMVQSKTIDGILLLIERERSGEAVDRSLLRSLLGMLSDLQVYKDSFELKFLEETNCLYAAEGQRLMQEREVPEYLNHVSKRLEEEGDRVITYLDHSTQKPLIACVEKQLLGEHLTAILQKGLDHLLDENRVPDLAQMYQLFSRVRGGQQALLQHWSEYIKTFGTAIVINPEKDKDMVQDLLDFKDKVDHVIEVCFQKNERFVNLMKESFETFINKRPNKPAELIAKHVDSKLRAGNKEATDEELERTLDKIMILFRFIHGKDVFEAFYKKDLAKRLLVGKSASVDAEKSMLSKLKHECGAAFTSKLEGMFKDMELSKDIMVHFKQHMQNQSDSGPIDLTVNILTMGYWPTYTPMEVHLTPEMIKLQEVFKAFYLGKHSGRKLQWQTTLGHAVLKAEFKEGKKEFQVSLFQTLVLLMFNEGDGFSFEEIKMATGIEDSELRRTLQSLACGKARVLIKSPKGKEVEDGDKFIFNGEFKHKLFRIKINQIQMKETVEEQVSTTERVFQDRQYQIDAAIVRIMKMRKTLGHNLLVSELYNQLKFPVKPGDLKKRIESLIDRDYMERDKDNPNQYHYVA

cullin-4A (CUL4A) (from UniProt Q13619 1-759)
binding: binds

From publication PMC8514338
